Experimental data: patent US20200197266A1, “MICROGELS FOR THE DELIVERY OF COSMETIC ACTIVE ORGANIC SUBSTANCES” (LVMH RECHERCHE, priority 2017, published 2020)

Assay: Encapsulation of cosmetic active molecules into bare microgel dispersion (entrapment efficiency)
Conditions: OEGDA-microgel dispersion
[1] = all tested feeding concentrations and encapsulation temperatures

CCCCC(CC)COC(=O)c1ccccc1O (stereo not drawn) [Escalol, 2-ethylhexyl salicylate]
E.E. (entrapment efficiency) [1]: above 90%

COc1cc(O)c(C(=O)c2ccccc2)cc1S(=O)(=O)O [Benzophenone-4, 4-Hydroxy-2-methoxy-5-(oxo-phenylmethyl)benzenesulfonic acid]
E.E. (entrapment efficiency) (feeding substance amount lower than 1 mg/(mg unloaded microgels), 20° C. and 50° C.): higher than 80%

CC(C)=CCCC(C)CCO (stereo not drawn) [Citronellol, 3,7-dimethyloct-6-en-1-ol]
E.E. (entrapment efficiency) [1]: > 70%

Hyaluronic acid
E.E. (entrapment efficiency) (at 600 microgram/mg, encapsulation pH 6): 50%

CCCCCCOC(=O)c1ccccc1C(=O)c1ccc(N(CC)CC)cc1O [Uvinul-A, hexyl 2-[4-(diethylamino)-2-hydroxybenzoyl]benzoate]
E.E. % (entrapment efficiency) (feeding substance amount between 1,500 and 3,000 μg/mg microgel): higher than 50% | E.E. % (entrapment efficiency) (feeding substance amount lower than 1,500 μg/mg microgel, encapsulation at 20° C. or 50° C.): higher than 70%
